Results deposited as PubChem BioAssay AID743454 (Peter MacCallum Cancer Centre, 2014).
Here is an unselected part of about 18,000 reagents tested. 450 of all reagents (2.5%) were called active. 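Single biological run; no consistent viability z cut-off exists, so the class columns, not z-scores, define the calls.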

Screen: 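Knock-downs lowering viability or raising caspase 3/7 activity in vorinostat-treated resistant cells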 (primary screen)
System: human HCT116-VR colon cancer cells, selected for vorinostat resistance
Reagents: siRNA pool against human genes, 40 nM siRNA pool
Time to read-out: vorinostat for 24 h, read-out about 72 h after transfection
Treatment: vorinostat at 2.5 µM final
Detection: 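Cell viability by CellTiter-Fluor and caspase 3/7 activity by luminescence, each scaled to mock wells per plate, duplicates averaged, then robust z-scored over all plates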
Direction: viability robust z-score: higher = more viable cells than screen typical; caspase robust z-score: higher = more caspase 3/7 activity than screen typical
Rule for the call: 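Hits are knock-downs in viability class RV1/RV2 or caspase class CA1/CA2, excluding ones that killed cells in the no-drug cell-count arm; hits then retested with single siRNAs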

BDH2 (3-hydroxybutyrate dehydrogenase 2) — viability hit class: no change; caspase hit class: no change; viability robust z-score: 0.26; caspase robust z-score: -0.24; Outcome: inactive
KLKB1 (kallikrein B1) — viability hit class: no change; caspase hit class: no change; viability robust z-score: 0.42; caspase robust z-score: -0.72; Outcome: inactive
DCAF12L2 (DDB1 and CUL4 associated factor 12 like 2) — viability hit class: no change; caspase hit class: no change; viability robust z-score: 0.75; caspase robust z-score: -0.16; Outcome: inactive
NUCB1 (nucleobindin 1) — viability hit class: no change; caspase hit class: no change; viability robust z-score: -0.42; caspase robust z-score: 2.23; Outcome: inactive
UGT2B15 (UDP glucuronosyltransferase family 2 member B15) — viability hit class: no change; caspase hit class: no change; viability robust z-score: -0.03; caspase robust z-score: -0.82; Outcome: inactive
COX10 — viability hit class: no change; caspase hit class: no change; viability robust z-score: -0.92; caspase robust z-score: 0.62; Outcome: inactive
CALN1 (calneuron 1) — viability hit class: no change; caspase hit class: no change; viability robust z-score: -1.05; caspase robust z-score: 1.65; Outcome: inactive
FGD6 (FYVE, RhoGEF and PH domain containing 6) — viability hit class: no change; caspase hit class: no change; viability robust z-score: 0.46; caspase robust z-score: -0.64; Outcome: inactive
SURF4 (surfeit 4) — viability hit class: no change; caspase hit class: no change; viability robust z-score: 0.51; caspase robust z-score: 2.36; Outcome: inactive
GTSF1 (gametocyte specific factor 1) — viability hit class: no change; caspase hit class: no change; viability robust z-score: 1.02; caspase robust z-score: 4.64; Outcome: inactive
SHPK (sedoheptulokinase) — viability hit class: no change; caspase hit class: no change; viability robust z-score: -0.96; caspase robust z-score: 3.88; Outcome: inactive
GPR88 (G protein-coupled receptor 88) — viability hit class: no change; caspase hit class: no change; viability robust z-score: -0.07; caspase robust z-score: 0.48; Outcome: inactive
RFK (riboflavin kinase) — viability hit class: no change; caspase hit class: no change; viability robust z-score: 0.67; caspase robust z-score: -0.22; Outcome: inactive

Copied from the list.
CALN1 (calneuron 1), Outcome → inactive
Under “viability hit class”, FGD6 (FYVE, RhoGEF and PH domain containing 6) shows no change
SHPK (sedoheptulokinase), Outcome: inactive

Continued.
PIGY (phosphatidylinositol glycan anchor biosynthesis class Y) — viability hit class: no change; caspase hit class: no change; viability robust z-score: 0.87; caspase robust z-score: -0.77; Outcome: inactive
MTRES1 (mitochondrial transcription rescue factor 1) — viability hit class: no change; caspase hit class: no change; viability robust z-score: 0.6; caspase robust z-score: -0.44; Outcome: inactive
DNAJC28 (DnaJ heat shock protein family (Hsp40) member C28) — viability hit class: no change; caspase hit class: no change; viability robust z-score: -0.24; caspase robust z-score: 1.31; Outcome: inactive
RNF182 (ring finger protein 182) — viability hit class: no change; caspase hit class: no change; viability robust z-score: 0.21; caspase robust z-score: -0.26; Outcome: inactive
TNFAIP1 (TNF alpha induced protein 1) — viability hit class: no change; caspase hit class: no change; viability robust z-score: 1.1; caspase robust z-score: -0.38; Outcome: inactive
CARM1 (coactivator associated arginine methyltransferase 1) — viability hit class: no change; caspase hit class: no change; viability robust z-score: -0.89; caspase robust z-score: 4.13; Outcome: inactive
CASC3 (CASC3 exon junction complex subunit) — viability hit class: no change; caspase hit class: no change; viability robust z-score: -0.02; caspase robust z-score: -0.81; Outcome: inactive
MRPL40 (mitochondrial ribosomal protein L40) — viability hit class: no change; caspase hit class: no change; viability robust z-score: 1.48; caspase robust z-score: 0.36; Outcome: inactive
